Results are given in words; binding and its absence hold for the method and conditions named. In cells and extracts the contact can be indirect. Some results given as binding are weak or reduced against the parent protein; the word gives no strength. Where a sequence is shown, tags or fusion partners need not be part of it.
Target: T1, Flag-tagged PGK1 (phosphoglycerate kinase 1) (human) (UniProt P00558)
T1 sequence: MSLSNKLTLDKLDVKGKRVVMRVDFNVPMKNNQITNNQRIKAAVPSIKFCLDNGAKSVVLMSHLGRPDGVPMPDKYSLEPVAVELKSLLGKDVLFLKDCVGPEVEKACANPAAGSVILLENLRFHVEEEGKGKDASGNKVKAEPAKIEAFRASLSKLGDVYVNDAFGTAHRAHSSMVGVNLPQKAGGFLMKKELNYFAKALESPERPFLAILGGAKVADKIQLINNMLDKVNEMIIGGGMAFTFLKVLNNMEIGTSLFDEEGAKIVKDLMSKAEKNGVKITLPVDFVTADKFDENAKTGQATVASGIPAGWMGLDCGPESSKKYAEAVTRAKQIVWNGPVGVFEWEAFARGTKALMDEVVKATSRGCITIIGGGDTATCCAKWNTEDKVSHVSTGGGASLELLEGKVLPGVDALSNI
Test: co-IP; Flag-PGK1 co-overexpressed with an HA-tagged partner in HEK293T cells; IP with Flag beads or Flag antibody, western blot with HA antibody; in some panels cells treated with insulin (50 nM, 2 hr), LY294002 or Wortmannin

Substance: HA-tagged HDAC3 (histone deacetylase 3) (from UniProt O15379-1 1-428) (enzyme)
- binding: binds

Source: PMC4565669, “Insulin and mTOR Pathway Regulate HDAC3-Mediated Deacetylation and Activation of PGK1” (PLoS Biology, 2015)
